We go through 60 compounds from article PMC6925144, “A prospective compound screening contest identified broader inhibitors for Sirtuin 1” (Scientific Reports, 2019).

Sequences of proteins named here, by UniProt entry; tags and fusion partners are left off. Residues count along the entry.
UniProt Q96EB6, 2-747 limits assumed: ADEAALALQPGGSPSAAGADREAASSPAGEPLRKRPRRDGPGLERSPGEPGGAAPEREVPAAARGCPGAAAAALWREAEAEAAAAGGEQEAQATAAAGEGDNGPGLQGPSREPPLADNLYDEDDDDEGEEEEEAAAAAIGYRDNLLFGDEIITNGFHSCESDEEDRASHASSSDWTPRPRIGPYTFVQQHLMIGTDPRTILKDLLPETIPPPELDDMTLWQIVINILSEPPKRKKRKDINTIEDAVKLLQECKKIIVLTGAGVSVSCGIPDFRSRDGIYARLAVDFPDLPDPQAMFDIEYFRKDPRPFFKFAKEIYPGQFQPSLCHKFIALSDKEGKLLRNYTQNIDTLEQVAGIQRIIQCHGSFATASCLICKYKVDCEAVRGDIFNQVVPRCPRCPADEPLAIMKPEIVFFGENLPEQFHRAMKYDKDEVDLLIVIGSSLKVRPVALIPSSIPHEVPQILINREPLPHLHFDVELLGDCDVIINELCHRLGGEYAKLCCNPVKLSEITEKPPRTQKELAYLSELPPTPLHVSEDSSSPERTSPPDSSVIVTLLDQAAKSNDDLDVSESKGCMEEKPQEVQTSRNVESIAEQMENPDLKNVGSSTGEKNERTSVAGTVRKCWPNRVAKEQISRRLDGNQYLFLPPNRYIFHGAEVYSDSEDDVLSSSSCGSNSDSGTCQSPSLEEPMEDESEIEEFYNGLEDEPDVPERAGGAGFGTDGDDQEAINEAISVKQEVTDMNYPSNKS

Molecules are shown by their SMILES. Whole data set: some 3,200 compounds, median “TSA(without NAD+) / Primary screening (TSA) / delta Tm (K)” near -0.07, cut for the highest 2% near 0.37. This is one part of the list.

In the experiment the target is NAD-dependent deacetylase Sirtuin 1 (human, UniProt Q96EB6). Briefly: primary screen, delta tm. On the set-up: single well (n = 1). The conditions noted are these: 10 µM. The essentials: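 Thermal shift of Sirtuin 1 measured without NAD+, compound at 10 µM (n = 1); value is ΔTm, with hits defined as ΔTm > 0.45 K or < −1.5 K. Hits retested at 5, 10, 20 µM (n = 4) and counterscreened on bovine carbonic anhydrase and ABL1 SH2 domain.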
Regarding `CC1(C)Cc2cccc(OCC(=O)OCC(=O)Nc3ccc(C(N)=O)cc3)c2O1`, the “TSA(without NAD+) / Primary screening (TSA) / delta Tm (K)” value is recorded as 0.03 K.
Take `O=C(CCCc1nc2ccccc2c(=O)[nH]1)NC1CCCc2ccccc21` (stereo not drawn): the “TSA(without NAD+) / Primary screening (TSA) / delta Tm (K)” value is -0.23 K.
On to `O=C(Cn1[nH]c(=O)c2ccccc2c1=O)NC1CCCc2ccccc21` (stereo not drawn), for which the “TSA(without NAD+) / Primary screening (TSA) / delta Tm (K)” value was determined as 0.19 K.
For `Cc1nc2ccccc2c(C)c1CC(=O)NC1CCCc2ccccc21` (stereo not drawn), the “TSA(without NAD+) / Primary screening (TSA) / delta Tm (K)” value was -0.07 K.
Next, `CC1CN(C(=O)c2ccc(NC(=O)C3=COCCC3)cc2)CC(C)O1` (stereo not drawn): -0.02 K; `CC(CN)CN`: 0.08 K; `NC(=O)NCCCCC(=O)Nc1cccc(C(F)(F)F)c1`: -0.07 K.
Next, `COc1ccc(/C=N/c2ccc(C)cc2)cc1`: 0.07 K; `Cc1nc2c(C(N)=O)ncn2c(C)c1CCC(=O)NC(c1cccs1)C(C)C` (stereo not drawn): -0.11 K.
Next, `Cc1cc(C#N)ccc1S(=O)(=O)NCCC(C)N` (stereo not drawn): -0.23 K; `O=C(COC(=O)CN1C(=O)c2ccccc2S1(=O)=O)Nc1ccccc1SCc1ccccc1`: 0.09 K.
As for `NC(=O)c1ccc(F)c(NC(=O)C2CCCc3cccnc32)c1` (stereo not drawn), the “TSA(without NAD+) / Primary screening (TSA) / delta Tm (K)” value was -0.08 K.
The figure for `O=C(CN1c2cccc3cccc(c23)S1(=O)=O)c1c[nH]c2ccccc12` is 0.08 K; for `Cc1nc(N2CCC(C(N)=O)CC2)c2c3c(sc2n1)CCCCC3` it is 0.78 K; for `O=C(Cc1ccccc1OC(F)F)Nc1cccc(-c2nnn[nH]2)c1` it is -0.18 K.
With `C/C(NCc1ccccc1)=C1/Sc2ccccc2C1=O`, the “TSA(without NAD+) / Primary screening (TSA) / delta Tm (K)” value is 0.09 K.
Next, `O=C(Nc1ccc(Oc2ncccn2)cc1)c1ccc(S(=O)(=O)Nc2ccc(F)cc2)cc1`: -0.11 K; `COC(=O)c1ccc(C2NC(=O)NC3=C2C(=O)N(CC(C)O)C3)cc1` (stereo not drawn): 0.02 K.
On to `COC(=O)c1ccc(C2C(C(=O)c3sc(C)nc3C)=C(O)C(=O)N2CCCN2CCOCC2)cc1` (stereo not drawn), for which the “TSA(without NAD+) / Primary screening (TSA) / delta Tm (K)” value is listed as -0.03 K.
The figure for `O=C(Nc1ccc(NC(=O)N2CCCCCC2)cc1)c1nc(Cl)ccc1Cl` is 0.07 K; for `O=C(CN1C(=O)c2ccccc2C1=O)c1ccc2c(c1)-c1ccccc1C2` it is -0.12 K.
Next, `CC(=O)c1cc(C(=O)NCCc2ccc(-c3csc(C)n3)s2)n(C)c1`: 0.12 K; `CC1=NNC(=O)/C1=C\c1cn(-c2ccccc2)nc1-c1cc2cc(Br)ccc2oc1=O`: -0.23 K.
Next, `CCCc1nnc(S)[nH]1`: -0.22 K; `O=C(NCCc1ccc(Cl)s1)NC1CC1`: -0.04 K.
On to `NC(=O)c1ccc(COC(=O)c2ccc3c(c2)OCC(=O)N3)cc1`, for which the “TSA(without NAD+) / Primary screening (TSA) / delta Tm (K)” value was determined as 0.07 K.
On to `CC(C)Cc1cc(C(=O)n2ncc(C#N)c2N)[nH]n1`, for which the “TSA(without NAD+) / Primary screening (TSA) / delta Tm (K)” value is given as -0.12 K.
Take `CCCOc1ccc(C(=O)C2=C(O)C(=O)N(CCCN3CCOCC3)C2c2cccs2)cc1` (stereo not drawn): the “TSA(without NAD+) / Primary screening (TSA) / delta Tm (K)” value is recorded as -0.12 K.
Consider `Cc1onc(-c2ccccc2)c1C(=O)Nc1cccc2c1CCCC2`, for which the “TSA(without NAD+) / Primary screening (TSA) / delta Tm (K)” value turned out to be 0.02 K.
Next, `CN(C(=O)CSc1ccccc1C(=O)OCc1cccc(S(=O)(=O)N(C)C)c1)C1CCCCC1`: -0.23 K; `COC(=O)CC1c2cc(OC)c(OC)cc2CCN1Cc1ccc(C(N)=O)cc1` (stereo not drawn): -0.32 K.
In the case of `O=C(Cc1csc(-c2ccccc2)n1)Nc1ccc(N2CCN(Cc3ccccc3)CC2)cc1`, the “TSA(without NAD+) / Primary screening (TSA) / delta Tm (K)” value is on record as 0.02 K.
Consider `CCOc1cc(C(=O)Nc2ncc(Cc3cccc(C)c3)s2)ccc1OCC(=O)N1CCCCC1`, for which the “TSA(without NAD+) / Primary screening (TSA) / delta Tm (K)” value was 0.13 K.
Next, `c1ccc2c(c1)oc1c(N3CCC4(CCOC4)C3)ncnc12` (stereo not drawn): 0.06 K.
The figure for `O=C(c1cc2cc(F)ccc2[nH]1)N1CCN(c2ncnc3sccc23)CC1` is -0.07 K.
Next, `CC1CN(C(C(=O)Nc2cnc3ccccc3c2)C(C)C)CC(C)O1` (stereo not drawn): -0.05 K; `CCOC(=O)c1sc(NC(=O)c2cnc3ccccc3n2)nc1-c1ccccc1`: -0.05 K.
For the compound `Cn1c(SC2CCOC2=O)nc2ccccc21` (stereo not drawn), the “TSA(without NAD+) / Primary screening (TSA) / delta Tm (K)” value is reported as -0.01 K.
For the compound `Cc1ccc(OCc2nc3ccccc3n2Cc2ccccc2C)cc1`, the “TSA(without NAD+) / Primary screening (TSA) / delta Tm (K)” value is reported as -0.21 K.
`CCSCCC(=O)O`: the “TSA(without NAD+) / Primary screening (TSA) / delta Tm (K)” value is -0.02 K.
For the compound `O=C1NC2(CCc3ccccc3C2)C(=O)N1Cc1nc2ccccc2s1` (stereo not drawn), the “TSA(without NAD+) / Primary screening (TSA) / delta Tm (K)” value is given as -0.05 K.
The figure for `CCCC(C)NC(=O)COC(=O)C1CCC(=O)N(c2ccc(OC)cc2)C1c1ccc(OC)cc1` (stereo not drawn) is -0.23 K; for `O=C(O)c1ccc2[nH]ccc2c1` it is 0.05 K.
For `O=C1CCCCCN1Cc1nnc(Sc2ncnc3cc(-c4ccc(Cl)cc4)sc23)o1`, the “TSA(without NAD+) / Primary screening (TSA) / delta Tm (K)” value is -0.17 K.
Next, `NCC(O)C1CC1` (stereo not drawn): -0.31 K; `Clc1ccc(-c2nnn[nH]2)cc1`: -0.02 K.
`COc1ccc(NC(=O)CCc2ccc(F)c(F)c2)cc1OCc1cn2ccccc2n1`: the “TSA(without NAD+) / Primary screening (TSA) / delta Tm (K)” value was -0.02 K.
With `CCCc1nnc(SC(C)C(=O)Nc2ccc(C(N)=O)cc2)n1CC(=O)O` (stereo not drawn), the “TSA(without NAD+) / Primary screening (TSA) / delta Tm (K)” value was -0.13 K.
As for `NC(=O)c1c(NC(=O)CSc2nc3scc(-c4cccs4)c3c(=O)n2-c2ccccc2)sc2c1CCC2`, the “TSA(without NAD+) / Primary screening (TSA) / delta Tm (K)” value is given as -0.28 K.
In the case of `O=C1NC(=S)NC(=O)C1=NNc1ccc(SC(F)F)cc1`, the “TSA(without NAD+) / Primary screening (TSA) / delta Tm (K)” value is listed as -0.11 K.
`COc1ccc(C(=O)C2=C(O)C(=O)N(CCCN3CCOCC3)C2c2ccccn2)cc1` (stereo not drawn): the “TSA(without NAD+) / Primary screening (TSA) / delta Tm (K)” value is reported as 0.09 K.
Consider `NC(=O)Cn1cnc2c(cnn2-c2ccccc2)c1=O`, for which the “TSA(without NAD+) / Primary screening (TSA) / delta Tm (K)” value is on record as -0.08 K.
Regarding `Cc1nnc(CN2CCN(CC(O)COCc3ccco3)CC2)n1C` (stereo not drawn), the “TSA(without NAD+) / Primary screening (TSA) / delta Tm (K)” value is listed as -0.04 K.
The figure for `CCOc1ccc(C2C(C(=O)/C=C/c3ccco3)=C(O)C(=O)N2CCCN2CCOCC2)cc1OC` (stereo not drawn) is -0.17 K.
Next, `NC(=O)c1ccc(N2CCCC2)c(NC(=O)c2cn(Cc3ccccc3)nn2)c1`: 0.12 K; `COc1ccc2cc(C(=O)O)c(C)nc2c1`: -0.27 K.
The figure for `CN1c2ccccc2C(=O)NC1c1cccc(C(F)(F)F)c1` (stereo not drawn) is -0.12 K.
Take `O=C(NCc1ccc[nH]1)C(=O)Nc1ccc2c(c1)CCC2`: the “TSA(without NAD+) / Primary screening (TSA) / delta Tm (K)” value is recorded as -0.18 K.
The figure for `O=C1/C(=C\c2cc(Br)cc(Br)c2O)CC/C1=C\c1cc(Br)cc(Br)c1O` is 0.55 K; for `N=C1c2ccccc2CN1c1ccc(-c2ccc(N3Cc4ccccc4C3=N)cc2)cc1` it is -0.33 K.
